Experimental data reported in PubChem BioAssay AID1671190 (National Center for Advancing Translational Sciences (NCATS), 2021).
The whole screen tested about 580,000 compounds, of which about 6,100 (1.1%) were called active. About 15% were inconclusive and are not listed. The call rests on the fitted dose curve; in most records, active means well fitted inhibition curve with a large enough effect; inconclusive means small, poorly fitted or top-dose-only effect, or another doubt; inactive means no such curve, though single readings can be large or run the other way. Only a part is listed here, and it is no random draw. Where no call is shown, the source filed none.

Amino acid sequences for entries named in this document (tags omitted).
UniProt P18054, whole entry, looked up: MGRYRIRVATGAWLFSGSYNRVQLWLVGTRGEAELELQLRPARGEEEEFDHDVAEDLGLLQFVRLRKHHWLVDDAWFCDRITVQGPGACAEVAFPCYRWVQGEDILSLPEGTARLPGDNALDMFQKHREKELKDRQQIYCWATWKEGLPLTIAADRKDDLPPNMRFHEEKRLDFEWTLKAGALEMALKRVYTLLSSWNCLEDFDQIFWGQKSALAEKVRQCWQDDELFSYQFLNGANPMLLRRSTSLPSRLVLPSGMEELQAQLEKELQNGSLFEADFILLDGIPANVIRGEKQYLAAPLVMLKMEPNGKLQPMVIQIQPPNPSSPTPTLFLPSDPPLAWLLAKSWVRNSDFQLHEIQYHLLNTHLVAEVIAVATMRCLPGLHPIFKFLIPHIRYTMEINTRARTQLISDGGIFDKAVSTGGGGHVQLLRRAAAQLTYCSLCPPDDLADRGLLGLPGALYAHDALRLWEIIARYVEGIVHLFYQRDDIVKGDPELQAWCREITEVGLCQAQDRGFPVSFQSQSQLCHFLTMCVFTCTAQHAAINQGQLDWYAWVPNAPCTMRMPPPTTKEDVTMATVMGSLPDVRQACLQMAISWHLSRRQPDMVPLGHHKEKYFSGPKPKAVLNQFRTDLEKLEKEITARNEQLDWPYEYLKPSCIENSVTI

molecular target: Polyunsaturated fatty acid lipoxygenase ALOX12 (Homo sapiens) (UniProt P18054); experiment: Primary qHTS assay for inhibitors of human arachidonate 12S-lipoxygenase (ALOX12): Round 2; conditions: purified 12hLO, xylenol orange hydroperoxide absorbance; activity change, negative = inhibition: at 0.00344 µM (top of the series)
Method in brief: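 Purified human 12hLO (150 nM final) in 25 mM Hepes, 0.01% Triton X-100, pH 7.0 was preincubated 15 min at room temperature with compound. Then 40 uM arachidonic acid was added, 30 min. Hydroperoxide was read by Fe-XO absorbance ratio 573/405 nm.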
On the % scale 0 is the no-effect control and ±100 the full control effect; potency means the concentration at half of the fitted maximal effect.

SMILES	activity change, negative = inhibition	Potency
CCN(CC)CCNC(=O)c1cc(Br)c(N)cc1OC	12.5%	–
C#CC1(O)CC[C@H]2[C@@H]3CCC4=CCCC[C@@H]4[C@H]3CC[C@@]21C (some centres not stated)	-13.4%	–
COCCCOc1ccnc(CS(=O)c2nc3ccccc3[nH]2)c1C (configuration not stated)	-15%	–
CSCC[C@H](NC(=O)[C@H](Cc1c[nH]c2ccccc12)NC(=O)CCNC(=O)OC(C)(C)C)C(=O)N[C@@H](CC(=O)O)C(=O)N[C@@H](Cc1ccccc1)C(N)=O	-26.4%	–
CCOC(N)=O	-5.13%	–
CN1CCN2c3ccccc3Cc3ccccc3C2C1 (configuration not stated)	0.494%	–
CC1CCCCC12NC(=S)N(c1ccccc1)N2 (configuration not stated)	–	active: 5.01 µM
CCCCc1ncc(/C=C(\Cc2cccs2)C(=O)O)n1Cc1ccc(C(=O)O)cc1	8.9%	–
O=C(O)CCC(=O)c1ccc(-c2ccccc2)cc1	16%	–
CC1(COc2ccc(CC3SC(=O)NC3=O)cc2)CCCCC1 (configuration not stated)	53.1%	–
CC(C)(C)NC[C@H](O)COc1cccc2c1CCCC2=O	-30.9%	–
Cc1ccc(Cn2cc(-c3ccncc3)cc2C(=O)NC2CC2)cc1	–	active: 28.2 µM
O=C(O)C(c1c[nH]c2cc(Cl)ccc12)N1CCN(C(c2ccccc2)c2ccccc2)CC1 (configuration not stated)	–	active: 7.94 µM
CCOC(=O)C1=C(C)NC(C)=C(C(=O)OC)C1c1cccc(Cl)c1Cl (configuration not stated)	0.908%	–
NNC(=O)c1ccncc1	11.1%	–
Cc1cc(O)c(C)c(C)c1O	9.88%	–

SMILES	activity change, negative = inhibition	Potency
CN(C)CC1CCC/C(=C/c2ccc(Cl)cc2)C1=O (configuration not stated)	–	active: 35.5 µM
Cc1cccc(N(C)C(=S)Oc2ccc3ccccc3c2)c1	16.7%	–
CCCCCCCCCCCC(=O)[O][Sn]([CH2]CCC)([CH2]CCC)[O]C(=O)CCCCCCCCCCC	-1.39%	–
O=C(O)c1cc2ccc(Br)cc2[nH]1	–	active: 17.8 µM
Cc1nn2c(c1-c1ccccc1-c1ccccc1)N(CCC(C)C)CCC2	–	active: 39.8 µM
O=C1NC2(CCN(CC3CCCC3)CC2)Oc2ccccc21	–	active: 25.1 µM
CN1CCCN=C1/C=C/c1cccs1	18.9%	–
CCOC(=O)Oc1ccc(CCNC(=O)[C@H](CCSC)NC(C)=O)cc1OC(=O)OCC	52.4%	–
Cc1cccc(C)c1NC(=S)NC(C)CCc1ccccc1 (configuration not stated)	–	active: 39.8 µM
Nc1nc(N)c2nc(-c3ccccc3)c(N)nc2n1	13.7%	–
CCCC(O)C(CC)CO (configuration not stated)	10.2%	–
COP(=O)(OC)OC(c1ccc(Cl)cc1)P(=O)(OC)OC (configuration not stated)	-13.7%	–
CC(C)NCC(O)COc1cccc2[nH]ccc12 (configuration not stated)	-12.4%	–
C=CCc1ccccc1OCC(O)CN1CCOCC1 (configuration not stated)	–	active: 39.8 µM
CN(C)S(=O)(=O)c1cccc(-n2sc3ccccc3c2=O)c1	–	active: 1.78 µM
CCCCCC=CCC=CCCCCCCCC(=O)OCC	-1.03%	–

3 of the compounds above, in CSV form:
SMILES,"activity change, negative = inhibition",Potency
CCN(CC)CCNC(=O)c1cc(Br)c(N)cc1OC,12.5%,–
C#CC1(O)CC[C@H]2[C@@H]3CCC4=CCCC[C@@H]4[C@H]3CC[C@@]21C (some centres not stated),-13.4%,–
COCCCOc1ccnc(CS(=O)c2nc3ccccc3[nH]2)c1C (configuration not stated),-15%,–
